Record: PubChem BioAssay AID504744 (Drosophila RNAi Screening Center, 2011)
Test: 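Uncover factors, including feedback loops, that control dAkt activation in fly cells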 (primary screen). System: Drosophila Kc167 cells. Reagents: long dsRNA against Drosophila genes, 250 ng dsRNA per well of a 384-well plate. Time to read-out: 3 days of knock-down, then overnight serum-free starvation before stimulation. Conditions: bovine insulin at 387 nM for 10 minutes after 12 h without serum. Measurement: 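In-cell antibody fluorescence for phospho-dAkt in each well over DNA-dye signal, with log2 residuals expressed as z-scores adjusted for cell count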. Call rule: 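Hit in the insulin screen when the two-replicate mean z-score is more extreme than plus or minus 2.5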.
In all, the deposit lists about 23,000 reagents; this is an unselected part of those with a known target gene and a result. Of all reagents, 98 (0.43%) got an active call. 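Only hit calls are given; the phospho-dAkt signals, z-scores and hit direction were not deposited.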 Reagents against one gene are numbered here. Names joined by + are all predicted targets of the reagent. Reagent sequences are not shown.

{"Gene": "Ir94f", "reagent": 1, "outcome": "inactive"}
{"Gene": "CG3703", "reagent": 1, "outcome": "inactive"}
{"Gene": "CG3703", "reagent": 2, "outcome": "inactive"}
{"Gene": "CG3703", "reagent": 3, "outcome": "inactive"}
{"Gene": "EloB", "reagent": 1, "outcome": "inactive"}
{"Gene": "cpx", "reagent": 1, "outcome": "inactive"}
{"Gene": "TBC1D16", "reagent": 1, "outcome": "inactive"}
{"Gene": "bru2", "reagent": 1, "outcome": "inactive"}
{"Gene": "bru2", "reagent": 2, "outcome": "inactive"}
{"Gene": "bru2", "reagent": 3, "outcome": "inactive"}
{"Gene": "bru2", "reagent": 4, "outcome": "inactive"}
{"Gene": "bru2", "reagent": 5, "outcome": "inactive"}
{"Gene": "wun", "reagent": 1, "outcome": "inactive"}
{"Gene": "alien", "reagent": 1, "outcome": "inactive"}
{"Gene": "scpr-A + scpr-C + scpr-B", "reagent": 1, "outcome": "inactive"}
{"Gene": "Fkbp12", "reagent": 1, "outcome": "inactive"}
{"Gene": "drongo", "reagent": 1, "outcome": "inactive"}
{"Gene": "CG12439", "reagent": 1, "outcome": "inactive"}
{"Gene": "nom", "reagent": 1, "outcome": "inactive"}
{"Gene": "CG15594", "reagent": 1, "outcome": "inactive"}
{"Gene": "AttD", "reagent": 1, "outcome": "inactive"}
{"Gene": "CG12692", "reagent": 1, "outcome": "inactive"}
{"Gene": "CG31740", "reagent": 1, "outcome": "inactive"}
{"Gene": "Atox1", "reagent": 1, "outcome": "inactive"}
{"Gene": "CG6912", "reagent": 1, "outcome": "inactive"}
{"Gene": "CG14439", "reagent": 1, "outcome": "inactive"}
{"Gene": "CG12219", "reagent": 1, "outcome": "inactive"}
{"Gene": "CG6733", "reagent": 1, "outcome": "inactive"}
{"Gene": "CG4021", "reagent": 1, "outcome": "inactive"}
{"Gene": "NKCC", "reagent": 1, "outcome": "inactive"}
{"Gene": "NKCC", "reagent": 2, "outcome": "inactive"}
{"Gene": "lbm", "reagent": 1, "outcome": "inactive"}
{"Gene": "Dsor1", "reagent": 1, "outcome": "inactive"}
{"Gene": "IntS8", "reagent": 1, "outcome": "inactive"}
{"Gene": "rsh", "reagent": 1, "outcome": "inactive"}
{"Gene": "rsh", "reagent": 2, "outcome": "inactive"}
{"Gene": "CG33474", "reagent": 1, "outcome": "inactive"}
{"Gene": "CG12096", "reagent": 1, "outcome": "inactive"}
{"Gene": "CG5180", "reagent": 1, "outcome": "inactive"}
{"Gene": "TwdlB", "reagent": 1, "outcome": "inactive"}
{"Gene": "CG7739", "reagent": 1, "outcome": "inactive"}
{"Gene": "Klp10A", "reagent": 1, "outcome": "inactive"}
{"Gene": "dmGlut", "reagent": 1, "outcome": "inactive"}
{"Gene": "Prosbeta5R1", "reagent": 1, "outcome": "inactive"}
{"Gene": "CG10194", "reagent": 1, "outcome": "inactive"}
{"Gene": "CG9727", "reagent": 1, "outcome": "inactive"}
{"Gene": "SLIRP1 + anox", "reagent": 1, "outcome": "inactive"}
{"Gene": "nompB", "reagent": 1, "outcome": "inactive"}
{"Gene": "nompB", "reagent": 2, "outcome": "inactive"}
{"Gene": "CG31937", "reagent": 1, "outcome": "inactive"}
{"Gene": "CG1620", "reagent": 1, "outcome": "inactive"}
{"Gene": "CG3702", "reagent": 1, "outcome": "inactive"}
{"Gene": "CG42633", "reagent": 1, "outcome": "inactive"}
{"Gene": "Gnptab", "reagent": 1, "outcome": "inactive"}
{"Gene": "CG6567 + CG42394", "reagent": 1, "outcome": "inactive"}
{"Gene": "CG18682 (retired record)", "reagent": 1, "outcome": "inactive"}
{"Gene": "CG18682 (retired record)", "reagent": 2, "outcome": "inactive"}
